Measured data: PubChem BioAssay AID504793 (Drosophila RNAi Screening Center, 2011)
The deposit covers about 23,000 reagents; below is a random part of those with a known target gene and a result. Over the whole deposit, 62 (0.27%) were called active. 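Calls come from follow-up tests whose scores are not deposited, so confirmed genes may have low counts here; counts are not normalised per plate.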 Raw values are not corrected between plates.

Aim: 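Genes required for cells to halt at G2/M after double-strand DNA breaks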 (primary screen)
Cells: Drosophila S2R+ cells
Knock-down reagent: long dsRNA against Drosophila genes, about 0.25 µg dsRNA per well
Timing: 4 days of dsRNA, then 4 hours of drug before read-out
Challenge: doxorubicin 0.5 µM for 4 hours to cause double-strand breaks, in cells also given a low, harmless dose of dsRNA against nbs to sensitise the assay
Measurement: 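Per-well count of mitotic cells stained for phospho-histone H3 after doxorubicin exposure, used as mitotic index; counts are raw and not normalised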
Scale: mitotic cells: higher = more cells in mitosis, weaker G2 arrest
Call rule: 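Genes are called active only when high mitotic counts were reproduced with independent dsRNAs and mitosis was checked for delay without damage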
Calls: active = confirmed in follow-up tests; inactive = not confirmed

Kif19A [DRSC16576] showed mitotic cells, replicate 1 = 7; inactive.
Kif19A [DRSC23867] gave mitotic cells, replicate 1 = 9; inactive.
With knock-down of CtsL4 [DRSC02849], the screen gave mitotic cells, replicate 1 = 5; inactive.
Silencing of salr [DRSC03607] resulted in: mitotic cells, replicate 1 = 5; inactive.
After knock-down of Aos1 [DRSC14113], the screen gave mitotic cells, replicate 1 = 5; inactive.
Aos1 [DRSC29634] showed mitotic cells, replicate 1 = 4; inactive.
Against obst-F [DRSC10805] the deposit lists mitotic cells, replicate 1 = 7; inactive.
After knock-down of obst-F [DRSC30097], the record shows mitotic cells, replicate 1 = 2; inactive.
Depletion of dpy [DRSC00233] came out at: mitotic cells, replicate 1 = 4; inactive.
dpy [DRSC00234] scored mitotic cells, replicate 1 = 8; inactive.
Silencing of dpy [DRSC00472] came out at: mitotic cells, replicate 1 = 4; inactive.
With knock-down of CG33137 [DRSC22131], the screen gave mitotic cells, replicate 1 = 3; inactive.
For RpLP2 [DRSC07539] the deposit lists mitotic cells, replicate 1 = 2; inactive.
RpLP2 [DRSC28510] showed mitotic cells, replicate 1 = 3; inactive.
Depletion of SkpA [DRSC18833] gave: mitotic cells, replicate 1 = 21; active.
For SkpA [DRSC25163], the entry reads mitotic cells, replicate 1 = 7; inactive.
CG15475 [DRSC02486] scored mitotic cells, replicate 1 = 2; inactive.
Depletion of CG15475 [DRSC30114] came out at: mitotic cells, replicate 1 = 7; inactive.
With knock-down of Gr22f [DRSC00076], the record shows mitotic cells, replicate 1 = 9; inactive.
For Gr22f [DRSC26841], the entry reads mitotic cells, replicate 1 = 3; inactive.
Silencing of CG7906 [DRSC10928] gave: inactive.
CG7906 [DRSC29526] scored mitotic cells, replicate 1 = 5; inactive.
Arpc4 [DRSC02917] scored mitotic cells, replicate 1 = 6; inactive.
For Arpc4 [DRSC29608] the deposit lists mitotic cells, replicate 1 = 6; inactive.
CG12096 [DRSC21692] showed mitotic cells, replicate 1 = 11; inactive.
Against CG12096 [DRSC27886] the deposit lists mitotic cells, replicate 1 = 5; inactive.
Against CG30287 [DRSC03875], the values are mitotic cells, replicate 1 = 21; inactive.
With knock-down of Jon25Bi [DRSC03434] the results were mitotic cells, replicate 1 = 7; inactive.
Against Jon25Bi [DRSC25181], the entry reads mitotic cells, replicate 1 = 7; inactive.
With knock-down of bgm [DRSC03495], the screen gave mitotic cells, replicate 1 = 5; inactive.
After knock-down of bgm [DRSC27103], the screen gave mitotic cells, replicate 1 = 4; inactive.
With knock-down of CG6296 [DRSC16013], the screen gave mitotic cells, replicate 1 = 4; inactive.
Knock-down of Cp190 [DRSC16607] came out at: mitotic cells, replicate 1 = 3; inactive.
Against luna [DRSC05253], the entry reads mitotic cells, replicate 1 = 5; inactive.
luna [DRSC24992] scored mitotic cells, replicate 1 = 8; inactive.
